From patent US20170158761A1 (EWHA UNIVERSITY INDUSTRY COLLABORATION FOUNDATION, published 2017)

How the values were obtained:
[1] = molecular target: Del-N11dTCTP (N-terminus deleted dimer TCTP, HRF); assay: ELISA on immobilised biotinylated dTBP2
[2] = molecular target: Del-N11dTCTP (N-terminus deleted dimer TCTP, HRF); assay: ELISA: biotinylated dTBP2 (0.01 to 10 µM) on streptavidin plate, TCTP protein at 0.2 µg/ml, anti-HRF rabbit antibody detection

- binding [1]: binds
- binding [2]: binds
Binder: WYVYPSM (biotin conjugated to the COOH-terminus) [biotinylated dTBP2 (dTCTP binding peptide 2)]

No constants are given. Whether binding was seen depends on the method and setting. Binding calls can cover weak binding; strength is not graded here.
